One experiment concerns the target HSF1 (UniProt Q00613). Nature of the experiment: DAPPL (digital affinity profiling via proximity ligation, sequencing). Particulars: 10 mM Tris-HCl pH 7.5, 50 mM NaCl, 1 mM DTT, 4% glycerol, room temperature, 30 min; GST-TFs on glutathione beads, 16-mer random dsDNA library, 0.1% …; high values mean tight binding; double strand, one strand shown; scale: fold enrichment (6-mer frequency, TF over GST control).

Chains of the proteins cited; added tags and fusions are not shown. Lines headed by an entry give the natural chain unless they say otherwise; changes in a name come on top.
UniProt Q00613: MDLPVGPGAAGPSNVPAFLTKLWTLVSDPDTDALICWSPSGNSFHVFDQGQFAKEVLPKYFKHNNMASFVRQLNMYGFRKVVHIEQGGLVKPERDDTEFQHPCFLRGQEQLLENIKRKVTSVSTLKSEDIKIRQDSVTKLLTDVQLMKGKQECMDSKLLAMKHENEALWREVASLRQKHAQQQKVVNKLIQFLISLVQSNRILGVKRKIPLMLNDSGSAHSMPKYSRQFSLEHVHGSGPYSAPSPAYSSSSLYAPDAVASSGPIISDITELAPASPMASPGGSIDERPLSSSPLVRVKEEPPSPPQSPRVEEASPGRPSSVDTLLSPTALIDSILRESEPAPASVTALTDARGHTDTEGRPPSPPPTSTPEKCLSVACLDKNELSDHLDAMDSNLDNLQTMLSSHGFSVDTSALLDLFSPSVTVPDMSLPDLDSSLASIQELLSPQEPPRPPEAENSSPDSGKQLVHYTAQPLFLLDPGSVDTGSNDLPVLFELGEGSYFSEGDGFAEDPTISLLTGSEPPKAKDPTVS

In the next experiment the target is T1, ELF2 (UniProt Q15723).
T1 sequence: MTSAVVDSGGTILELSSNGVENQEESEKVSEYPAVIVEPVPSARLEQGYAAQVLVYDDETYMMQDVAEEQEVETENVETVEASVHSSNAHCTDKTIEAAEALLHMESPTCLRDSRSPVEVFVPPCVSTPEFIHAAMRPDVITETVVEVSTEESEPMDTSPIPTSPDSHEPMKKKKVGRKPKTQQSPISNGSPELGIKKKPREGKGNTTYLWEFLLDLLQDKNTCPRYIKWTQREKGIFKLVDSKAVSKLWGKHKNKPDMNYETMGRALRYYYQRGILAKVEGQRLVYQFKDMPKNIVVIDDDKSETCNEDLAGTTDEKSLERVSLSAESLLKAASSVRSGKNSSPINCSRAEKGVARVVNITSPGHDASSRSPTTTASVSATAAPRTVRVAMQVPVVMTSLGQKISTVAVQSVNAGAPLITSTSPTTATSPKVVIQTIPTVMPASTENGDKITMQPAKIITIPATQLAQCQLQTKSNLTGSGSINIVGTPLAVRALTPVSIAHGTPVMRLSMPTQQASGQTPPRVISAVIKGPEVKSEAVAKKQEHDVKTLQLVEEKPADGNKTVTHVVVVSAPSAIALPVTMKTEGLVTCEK
Described as above. As to conditions: 10 mM Tris-HCl pH 7.5, 50 mM NaCl, 1 mM DTT, 4% glycerol, room temperature, 30 min; GST-TFs on glutathione beads, 16-mer random dsDNA library, 0.1% …; high values mean tight binding; double strand, one strand shown; scale: fold enrichment (6-mer frequency, TF over GST control).

Our source for the binding signal values is publication PMC7862700.

The list shows a part of the results, in another mix than the full data. For part of these data: At the low end of the ranking, values are background and their order means little. The list shows a part of the results. For part of these data: The exact form of the protein is not confirmed.

For the sequence GCGGCT, the binding signal with HSF1 turned out to be 0.923; with ELF2, 0.888.
With GGTTAT, the binding signal with HSF1 was determined as 0.927; in the experiment with ELF2 it was 1.06.
Turning to CCATCT, the binding signal with HSF1 stood at 1.31; in the experiment with ELF2 it was 1.19.
On to TCTAGG, for which the figures for the binding signal in the experiment with HSF1 and with ELF2 were 1.7 and 1.05, respectively.
Turning to TTCCAC, the binding signal worked out at 1.83 with HSF1 and 1.39 with ELF2.
The like results for CTATCC were, in that order, 1.25 and 1.38.
On to AGGATA, for which the binding signal came out at 0.957 with HSF1 and 1.05 with ELF2.
In the same order, the values of AATCTT are 2.17 and 1.33.
As for TTTAGT, the binding signal in the experiment with HSF1 worked out at 1.2; with ELF2 it was 0.995.
Turning to GGATAT, the values for the binding signal in the experiment with HSF1 and with ELF2 were 0.924 and 2.07, respectively.
Turning to ATGAGG, the figures for the binding signal with HSF1 and with ELF2 were 0.756 and 0.966, respectively.
As for GTCCGC, the binding signal in the experiment with HSF1 came to 0.709; in the experiment with ELF2, 1.07.
As to ACAAAA, the binding signal was determined as 1.09 with HSF1 and 1.17 with ELF2.
The like results for TTCTGA were, in that order, 1.48 and 1.16.
Take TAAGGC: the binding signal turned out to be 0.984 in the experiment with HSF1 and 0.89 in the experiment with ELF2.
In the case of AGCGTC, the figures for the binding signal in the experiment with HSF1 and with ELF2 were 0.877 and 1.03, respectively.
As to GTGGAT, the binding signal in the experiment with HSF1 was determined as 1.01; with ELF2, 0.868.
Regarding GTATGA, the values for the binding signal with HSF1 and with ELF2 were 0.814 and 0.953, respectively.
With CTTAAT, the binding signal worked out at 2.31 with HSF1 and 1.26 with ELF2.
The like results for TAGTTG were, in that order, 0.966 and 0.954.
For TTGTAA, the binding signal with HSF1 is 1.4; in the experiment with ELF2, 1.24.
Turning to AGTACC, the binding signal was 0.812 with HSF1 and 1.01 with ELF2.
For TCGCCG, the binding signal with HSF1 was 0.992; in the experiment with ELF2, 1.14.
Turning to ACCACG, the values for the binding signal with HSF1 and with ELF2 were 0.919 and 1.04, respectively.
Turning to CTGTGG, the binding signal with HSF1 was 0.776; with ELF2 it was 0.804.
Turning to TGTGGT, the binding signal with HSF1 stood at 0.775; with ELF2 it was 1.
With AACGCA, the figures for the binding signal in the experiment with HSF1 and with ELF2 were 0.888 and 1.02, respectively.
CCGAAA: the binding signal with HSF1 worked out at 1.73; in the experiment with ELF2 it was 1.21.
The like results for CTGCGT were, in that order, 0.93 and 1.11.
As to TTATAA, the binding signal came to 1.79 with HSF1 and 1.15 in the experiment with ELF2.
For the sequence TGCCCT, the results for the binding signal with HSF1 and with ELF2 were 0.999 and 1.06, respectively.
With CCGACA, the binding signal with HSF1 was 1.03; in the experiment with ELF2, 1.17.
Regarding AGACTC, the binding signal with HSF1 was 0.964; in the experiment with ELF2 it was 0.878.
The like results for CACTTT were, in that order, 1.17 and 1.28.
The like results for CCTTAG were, in that order, 1.2 and 1.18.
In the same order, the values of GTTCAG are 0.758 and 0.877.
Consider ACCCCC, for which the figures for the binding signal with HSF1 and with ELF2 were 0.88 and 1.13, respectively.
In the same order, the values of ATGGCG are 0.832 and 1.
The like results for CATTAC were, in that order, 1.02 and 1.13.
For the sequence CTGGAA, the results for the binding signal with HSF1 and with ELF2 were 4.43 and 1.27, respectively.
For the sequence CGACGC, the binding signal with HSF1 came to 0.917; in the experiment with ELF2, 1.02.
In the same order, the values of TGTAGA are 1.12 and 0.873.
The like results for GAATGA were, in that order, 1.15 and 0.923.
As to TGGGCG, the results for the binding signal with HSF1 and in the experiment with ELF2 were 0.768 and 0.823, respectively.
In the same order, the values of ACGACT are 1.2 and 1.24.
For the sequence GTGTCC, the binding signal was 0.684 with HSF1 and 1.04 with ELF2.
With GCCGCA, the binding signal came to 0.817 in the experiment with HSF1 and 0.961 with ELF2.
In the same order, the values of CACGCA are 0.88 and 0.964.
As to GTTACA, the values for the binding signal with HSF1 and with ELF2 were 0.886 and 1.12, respectively.
As to TTTCAA, the binding signal stood at 1.23 in the experiment with HSF1 and 1.29 with ELF2.
For CACACA, the values for the binding signal with HSF1 and with ELF2 were 0.962 and 1.12, respectively.
With AGTTCT, the binding signal in the experiment with HSF1 was determined as 1.92; with ELF2, 1.09.
Consider TCCGAA, for which the binding signal with HSF1 came out at 1.48; with ELF2 it was 1.27.
With AGGTAA, the binding signal was 0.989 with HSF1 and 0.942 with ELF2.
For the sequence AACTTT, the binding signal in the experiment with HSF1 turned out to be 1.68; with ELF2 it was 1.23.
On to TTACTA, for which the binding signal with HSF1 was 1.79; with ELF2, 1.26.
ACTAGG: the values for the binding signal with HSF1 and in the experiment with ELF2 were 0.965 and 1.02, respectively.
